Here are results for one substance from patent US20140271765A1 (priority 2013, published 2014).

For data set [1] the following is noted: plasma norbuprenorphine; 2 implants; individual subjects.
Data set [2] is described as follows: Urinary excretion, plasma AUC and renal clearance after implants (Example 5). Conditions: norbuprenorphine, individual subjects.

This is a selection: effects in other tests are not listed, and their absence says nothing. For part of its entries the source gives two or more results. The list is limited to them. An entry can have further records. Results that share an entry differ for a reason that is not stated; some may be repeats, others may stem from another dose, organism or construct than stated.

Consider norbuprenorphine, for which, in data set [1], the “Cave Day 21 to removal” value is given as 109.9, 104.1, 100.0, 103.8, 76.8, 239.1 pg/mL. The “Plasma AUC” value in data set [2] (2 implants, 0-24 hours) was 24,287 pg/mL*h and 27,032 pg/mL*h and 24,987 pg/mL*h and 18,773 pg/mL*h and 24,379 pg/mL*h and 49,780 pg/mL*h; in data set [2] (2 implants, 24-48 hours), 46,200 pg/mL*h and 24,618 pg/mL*h and 25,638 pg/mL*h and 12,846 pg/mL*h; in data set [2] (4 implants, 0-24 hours), 87,440 pg/mL*h and 85,055 pg/mL*h and 74,000 pg/mL*h and 41,040 pg/mL*h and 23,182 pg/mL*h; in data set [2] (4 implants, 24-48 hours), 76,920 pg/mL*h and 60,930 pg/mL*h and 70,290 pg/mL*h and 29,250 pg/mL*h and 22,989 pg/mL*h.
